Test results published in PMC7862700.
The entries are a selection whose mix differs from that of the whole data set. For part of these data: At the low end of the ranking the order means little. The list shows a part of the results. For part of these data: Construct or isoform of the protein are uncertain.

By UniProt entry, the sequences of proteins in these tests, tags left out. Where a name states a change or a piece, a line headed by the entry shows the natural chain unless it says otherwise.
UniProt P32519: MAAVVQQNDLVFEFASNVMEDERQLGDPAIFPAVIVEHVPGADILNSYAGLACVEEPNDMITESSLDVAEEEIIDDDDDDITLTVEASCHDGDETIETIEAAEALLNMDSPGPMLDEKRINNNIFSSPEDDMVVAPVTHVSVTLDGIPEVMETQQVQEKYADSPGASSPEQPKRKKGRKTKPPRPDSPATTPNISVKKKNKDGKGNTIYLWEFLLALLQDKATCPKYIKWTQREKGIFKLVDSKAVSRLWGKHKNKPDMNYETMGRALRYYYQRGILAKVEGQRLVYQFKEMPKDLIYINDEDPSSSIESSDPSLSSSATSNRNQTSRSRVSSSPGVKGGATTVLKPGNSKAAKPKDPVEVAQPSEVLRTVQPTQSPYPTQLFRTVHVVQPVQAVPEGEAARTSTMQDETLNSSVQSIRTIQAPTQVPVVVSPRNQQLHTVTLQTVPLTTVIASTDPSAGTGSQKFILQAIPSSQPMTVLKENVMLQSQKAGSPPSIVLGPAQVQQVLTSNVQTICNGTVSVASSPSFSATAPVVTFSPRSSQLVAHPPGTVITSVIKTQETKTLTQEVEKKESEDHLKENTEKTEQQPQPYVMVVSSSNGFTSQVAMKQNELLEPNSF
UniProt P50549: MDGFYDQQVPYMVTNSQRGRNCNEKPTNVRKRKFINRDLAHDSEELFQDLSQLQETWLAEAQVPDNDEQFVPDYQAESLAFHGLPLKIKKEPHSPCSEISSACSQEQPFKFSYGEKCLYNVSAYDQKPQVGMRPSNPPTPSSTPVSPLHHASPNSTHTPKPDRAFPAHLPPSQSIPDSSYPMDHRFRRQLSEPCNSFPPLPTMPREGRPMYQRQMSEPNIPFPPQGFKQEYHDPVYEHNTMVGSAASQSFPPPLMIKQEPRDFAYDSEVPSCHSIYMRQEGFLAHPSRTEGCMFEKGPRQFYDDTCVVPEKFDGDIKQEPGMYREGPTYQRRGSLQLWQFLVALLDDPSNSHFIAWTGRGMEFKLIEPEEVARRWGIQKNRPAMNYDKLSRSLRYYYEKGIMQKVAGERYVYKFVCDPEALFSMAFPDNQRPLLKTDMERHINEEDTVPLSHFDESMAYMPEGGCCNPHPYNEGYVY

Tests used:
Test in all cases: DAPPL (digital affinity profiling via proximity ligation, sequencing)
Conditions in all cases: 10 mM Tris-HCl pH 7.5, 50 mM NaCl, 1 mM DTT, 4% glycerol, room temperature, 30 min; GST-TFs on glutathione beads, 16-mer random dsDNA library, 0.1% …; high values mean tight binding; double strand, one strand shown; scale: fold enrichment (6-mer frequency, TF over GST control)
ERG = molecular target: T1, ERG (UniProt P11308)
T1 sequence: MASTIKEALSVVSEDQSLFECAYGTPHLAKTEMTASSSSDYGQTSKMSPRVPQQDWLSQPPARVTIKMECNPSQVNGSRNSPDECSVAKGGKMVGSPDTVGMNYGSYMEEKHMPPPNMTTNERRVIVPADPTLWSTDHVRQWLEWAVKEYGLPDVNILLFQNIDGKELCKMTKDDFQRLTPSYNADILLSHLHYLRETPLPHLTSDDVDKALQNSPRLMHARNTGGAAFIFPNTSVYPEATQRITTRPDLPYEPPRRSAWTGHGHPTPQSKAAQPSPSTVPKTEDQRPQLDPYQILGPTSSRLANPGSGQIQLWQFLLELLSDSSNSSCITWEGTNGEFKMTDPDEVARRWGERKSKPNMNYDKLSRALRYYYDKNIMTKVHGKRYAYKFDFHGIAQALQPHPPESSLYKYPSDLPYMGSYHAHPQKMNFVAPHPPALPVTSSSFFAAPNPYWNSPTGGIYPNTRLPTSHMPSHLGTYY

ELF1 = ELF1 (UniProt P32519)
ETV4 = molecular target: T2, ETV4 (UniProt P43268)
T2 sequence: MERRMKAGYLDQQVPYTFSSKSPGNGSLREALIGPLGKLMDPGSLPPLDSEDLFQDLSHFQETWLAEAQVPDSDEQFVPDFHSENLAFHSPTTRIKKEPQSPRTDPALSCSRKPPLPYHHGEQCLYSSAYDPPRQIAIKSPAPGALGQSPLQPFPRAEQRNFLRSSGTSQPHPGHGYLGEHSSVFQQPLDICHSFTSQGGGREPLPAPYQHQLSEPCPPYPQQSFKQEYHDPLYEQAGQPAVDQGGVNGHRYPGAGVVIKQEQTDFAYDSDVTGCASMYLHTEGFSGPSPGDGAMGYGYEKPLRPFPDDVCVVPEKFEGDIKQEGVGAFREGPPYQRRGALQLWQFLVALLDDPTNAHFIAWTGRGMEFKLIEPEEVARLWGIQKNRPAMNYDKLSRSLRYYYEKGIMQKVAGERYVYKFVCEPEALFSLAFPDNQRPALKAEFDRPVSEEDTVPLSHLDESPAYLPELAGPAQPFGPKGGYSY

ETV1 = ETV1 (UniProt P50549)
ERF = molecular target: T3, ERF (UniProt P50548)
T3 sequence: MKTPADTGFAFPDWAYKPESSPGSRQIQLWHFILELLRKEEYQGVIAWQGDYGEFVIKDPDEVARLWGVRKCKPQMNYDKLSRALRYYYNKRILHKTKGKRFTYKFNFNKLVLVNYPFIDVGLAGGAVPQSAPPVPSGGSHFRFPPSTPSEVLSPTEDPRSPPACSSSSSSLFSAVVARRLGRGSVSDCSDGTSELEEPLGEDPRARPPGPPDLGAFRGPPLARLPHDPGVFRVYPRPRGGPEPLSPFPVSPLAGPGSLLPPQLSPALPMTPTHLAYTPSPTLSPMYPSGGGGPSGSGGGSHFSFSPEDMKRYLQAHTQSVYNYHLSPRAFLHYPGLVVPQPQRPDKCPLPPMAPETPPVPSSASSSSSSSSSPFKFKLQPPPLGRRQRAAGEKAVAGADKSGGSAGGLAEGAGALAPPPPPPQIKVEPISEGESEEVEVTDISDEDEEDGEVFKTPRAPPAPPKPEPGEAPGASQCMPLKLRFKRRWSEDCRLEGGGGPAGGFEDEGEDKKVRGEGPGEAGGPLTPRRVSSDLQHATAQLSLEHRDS

| Sequence | binding signal (ERG) | binding signal (ELF1) | binding signal (ETV4) | binding signal (ETV1) | binding signal (ERF) |
| --- | --- | --- | --- | --- | --- |
| TGGCCT | 1.54 | 1.48 | 1.47 | 1.27 | – |
| TAAAAC | 1.18 | – | 1.25 | 1.18 | – |
| ATATGC | 1.13 | – | 1.14 | 1.11 | – |
| TTAAAG | 1.1 | – | 1.06 | 1.15 | – |
| ATCTCT | 1.17 | – | 1.36 | 1.23 | 1.38 |
| ATGCAC | 1.2 | – | 1.39 | 1.19 | – |
| CTGATA | 1.1 | 1.21 | 1.14 | 1.13 | – |
| CTTCGG | 1.35 | – | 1.62 | 1.72 | – |
| CCTAGA | 0.951 | – | 0.978 | 0.982 | – |
| TTGGGT | 0.965 | – | 1.14 | 1.06 | – |
| ATACAG | 1.16 | – | 1.1 | 1.11 | – |
| TTTTTA | 1.25 | – | 1.19 | 1.32 | – |
| GAATTC | 1.36 | – | 1.36 | 1.34 | – |
| TTCAGT | 1.03 | – | 1.12 | 1.07 | 1.09 |
| ACATTG | 1.07 | – | 1.09 | 1.19 | 1.26 |
| CTTGGT | 1.42 | – | 1.47 | 1.53 | – |
| TTATGA | 1.08 | – | 1.18 | 1.17 | – |
| TACTGA | 1.03 | 1.13 | 1.06 | 1.02 | – |
| GCTGAT | 1.1 | – | 1.13 | 1.2 | 1.07 |
| AAAAGT | 0.998 | – | 1.06 | 1.13 | 0.989 |
| ATGTAA | 1.29 | – | 1.28 | 1.27 | 1.18 |
| GATTTT | 1.12 | – | 1.08 | 1.17 | – |
| CTTCGC | 1.53 | – | 1.4 | 1.52 | – |
| CGAAAA | 1.06 | 1.05 | 1.09 | 1.06 | – |
| TTGACA | 1.34 | – | 1.32 | 1.33 | – |
| CTGGCC | 1.29 | 1.23 | 1.13 | 1.15 | – |
| ATCTAA | 1.17 | – | 1.2 | 1.16 | – |

| Sequence | binding signal (ERG) | binding signal (ELF1) | binding signal (ETV4) | binding signal (ETV1) | binding signal (ERF) |
| --- | --- | --- | --- | --- | --- |
| TGTAAT | 1.2 | – | 1.17 | 1.17 | 1.14 |
| CATCGA | 0.998 | – | 1.07 | 1.05 | – |
| TCTTAG | 1.15 | – | 1.25 | 1.25 | – |
| TTACGA | 1.06 | – | 1.11 | 1.16 | – |
| TTGCAT | 1.37 | – | 1.47 | 1.5 | 1.37 |
| ATCCGA | 1.31 | – | 1.24 | – | 1.22 |
| CCGATT | 1.34 | – | 1.41 | – | 1.28 |
| ATGTAC | 1.11 | – | 1.4 | – | 1.19 |
| CCCACG | 1.09 | – | 1.21 | – | 1.13 |
| TTGCCG | 1.04 | – | 1.19 | – | 0.898 |
| CGCTCT | 1.21 | 1.3 | 1.28 | – | 1.3 |
| ACTCTA | 1.39 | – | 1.4 | – | 1.56 |
| CGATTT | 1.17 | – | 1.18 | – | 1.09 |
| TATTGG | 1.15 | – | 1.24 | – | 1.2 |
| TCGATC | 1.18 | – | 1.21 | – | 1.12 |
| GCTTCA | 1.34 | – | 1.26 | – | 1.33 |
| GATATC | 1.9 | 1.46 | 1.72 | – | 1.56 |
| GCTCGT | 1.12 | – | 1.23 | – | 1.2 |
| AATAAC | 1.27 | – | 1.28 | – | 1.33 |
| ATGCAA | 1.29 | 1.25 | 1.24 | – | 1.23 |
| AAACCC | 1.25 | – | 1.22 | – | 1.28 |
| ACTTCA | 1.4 | 1.42 | 1.36 | – | 1.33 |
| ATCGCC | 1.29 | – | 1.36 | – | 1.27 |
| ATTCTA | 1.23 | – | 1.21 | – | 1.32 |
| GTTTCC | 3.43 | – | 2.83 | – | 2.49 |
| GAACCA | 0.944 | – | 0.985 | – | 0.989 |
| TCGACA | 1.35 | – | 1.3 | – | 1.35 |

Part of the list above in another layout.
GATATC
  binding signal (ERG): 1.9
  binding signal (ELF1): 1.46
  binding signal (ETV4): 1.72
  binding signal (ERF): 1.56
GCTCGT
  binding signal (ERG): 1.12
  binding signal (ETV4): 1.23
  binding signal (ERF): 1.2
AATAAC
  binding signal (ERG): 1.27
  binding signal (ETV4): 1.28
  binding signal (ERF): 1.33
ATGCAA
  binding signal (ERG): 1.29
  binding signal (ELF1): 1.25
  binding signal (ETV4): 1.24
  binding signal (ERF): 1.23

(next part)

| Sequence | binding signal (ERG) | binding signal (ELF1) | binding signal (ETV4) | binding signal (ETV1) | binding signal (ERF) |
| --- | --- | --- | --- | --- | --- |
| CCCTGG | 0.999 | – | 1.24 | – | 1.24 |
| TGCTGC | 0.996 | 1.21 | 1.29 | 1.13 | – |
| CACTTA | 1.22 | 1.27 | 1.28 | 1.25 | – |
| CAATAA | 1.13 | – | 1.2 | – | 1.15 |
| ATCACT | 1.28 | – | 1.28 | – | 1.16 |
| GCTAAT | 1.13 | – | 1.1 | – | 1.23 |
| TGCTGA | 1.01 | – | 1.1 | – | 1.03 |
| ACTAGC | 1.21 | – | 1.16 | – | 1.19 |
| ATCAGC | 0.995 | – | 1.06 | – | 0.913 |
| GTCTAC | 1.05 | – | 1.15 | – | 1.07 |
| ATAAAT | 1.15 | – | 1.18 | – | 1.19 |
| TACTTA | 1.16 | – | 1.14 | – | 1.29 |
| TCTTCT | 1.23 | – | 1.27 | – | 1.24 |
| TGTGAC | 1.08 | – | 1.1 | – | 0.983 |
| ACCTCG | 1.15 | – | 1.26 | – | 1.2 |
| AAAGCG | 1.09 | – | 1.05 | – | 1.13 |
| TACGTA | 1.2 | – | 1.29 | – | 1.3 |
| CTTGGG | – | – | 1.28 | 1.38 | – |
| CCGTAC | – | – | 1.32 | 1.34 | – |
| AAAAAG | 1.19 | 1.13 | 1.22 | – | – |
| GTGGCT | 1.19 | 1.11 | 1.18 | – | – |
| CGACCC | 1.22 | 1.26 | 1.32 | – | 1.36 |
| AAGCAC | 1.19 | 1.18 | 1.24 | – | – |
| AAGTGG | – | – | 1.16 | 1.2 | – |
| TACCTC | 1.19 | 1.25 | 1.25 | – | 1.32 |
